In patent publication US20170189504A1, “NOVEL PEPTIDES AND COMBINATION OF PEPTIDES FOR USE IN IMMUNOTHERAPY AGAINST VARIOUS CANCERS” (immatics biotechnologies GmbH, priority 2015, published 2017):

How the values were obtained:
source genes (mRNA) [1] = assay: Expression profiling of source genes by in-house RNASeq of tumor and normal tissues (Table 18, FIG. 2); design: species or system human; key: very highly over-expressed in tumors compared to a panel of normal tissues (+++); highly over-expressed in tumors compared to a panel of normal tissues (++); over-expressed in tumors compared to a panel of normal tissues (+); settings: source gene of peptide; for Expression score OSCAR: esophageal cancer incl. gastric-esophageal junction (N = 11) vs panel of normal tissues; for Expression score NSCLC: non-small cell lung cancer (N = 11) vs panel of normal tissues; for Expression score OC: ovarian cancer (N = 12) vs panel of normal tissues; for Expression score SCLC: small cell lung cancer (N = 10) vs panel of normal tissues
source genes (mRNA) [2] = assay: Gene and exon expression of source genes, TCGA tumor samples compared with normal tissue samples (Lonsdale, 2013) (Table 17); design: species or system human; settings: for Over-expression category of source gene (target coverage), BRCA: BRCA = Breast cancer (N = 1104), tumors more than 2-fold above highest 75% percentile of normal tissues; for Over-expression category of source gene (target coverage), COAD: COAD = Colon and rectal adenocarcinoma (N = 462); for Over-expression category of source gene (target coverage), ESCA: ESCA = Esophageal cancer (N = 185); for Over-expression category of source gene (target coverage), LAML: LAML = Acute Myeloid Leukemia (N = 173); for Over-expression category of source gene (target coverage), LUAD: LUAD = Lung adenocarcinoma (N = 517); for Over-expression category of source gene (target coverage), LUSC: LUSC = Lung squamous cell carcinoma (N = 503); for Over-expression category of source gene (target coverage), OV: OV = Ovarian serous cystadenocarcinoma (N = 309); for Over-expression category of source gene (target coverage), READ: READ = Colon and rectal adenocarcinoma (N = 167); for Over-expression category of source gene (target coverage), SKCM: SKCM = Skin cutaneous melanoma (N = 473); for Over-expression category of source gene (target coverage), STAD: STAD = Stomach adenocarcinoma (N = 415); for Over-expression category of source gene (target coverage), UCEC: UCEC = Uterine corpus endometrial carcinoma (N = 546)
HLA-A*24 = assay: Identification and relative LC-MS quantitation of HLA-A*24-presented tumor-associated peptides on tissue samples (presentation profiles, Tables 14A, 14B, 16, FIG. 1); design: species or system human; key to Presentation score GC / Presentation score NSCLC / Presentation score PCA / Presentation score GB / Presentation score HCC / Presentation score RCC: specifically presented on tumors (++++); very highly over-presented on tumors compared to a panel of normal tissues (+++); highly over-presented on tumors compared to a panel of normal tissues (++); over-presented on tumors compared to a panel of normal tissues (+); settings: for Presentation score GC: gastric cancer (N = 44) vs panel of normal tissues (N = 70); for Presentation score NSCLC: non-small cell lung cancer (N = 91) vs panel of normal tissues (N = 70); for Peptide Presentation on cancer entities: Table 14A, HLA-A*24-binding tumor-associated peptides, cancer entities on which the peptide was found presented

Substance: 187: peptide found in CCNE1 (gene looked up) (TYLRDQHFL; listed as Homo sapiens) [compound 187]
- Expression score OSCAR (source genes (mRNA) [1]): +
- Expression score NHL (source genes (mRNA) [1]; non-Hodgkin lymphoma (N = 10) vs panel of normal tissues): +
- Expression score NSCLC (source genes (mRNA) [1]): +
- Expression score OC (source genes (mRNA) [1]): +++
- Expression score SCLC (source genes (mRNA) [1]): ++
- Expression score UBC (source genes (mRNA) [1]; urinary bladder cancer (N = 10) vs panel of normal tissues): +
- Expression score UEC (source genes (mRNA) [1]; uterine cancer (N = 10) vs panel of normal tissues): +
- Over-expression category of source gene (target coverage), BLCA (source genes (mRNA) [2]; BLCA = Bladder urothelial carcinoma (N = 408), same cutoff): A (>=50% of tumors above the cutoff)
- Over-expression category of source gene (target coverage), BRCA (source genes (mRNA) [2]): C (>=5% of tumors above the cutoff, but <20%)
- Over-expression category of source gene (target coverage), CHOL (source genes (mRNA) [2]; CHOL = Cholangiocarcinoma (N = 36), same cutoff): C (>=5% of tumors above the cutoff, but <20%)
- Over-expression category of source gene (target coverage), COAD (source genes (mRNA) [2]; same cutoff): B (>= 20% of tumors above the cutoff, but <50%)
- Over-expression category of source gene (target coverage), DLBC (source genes (mRNA) [2]; DLBC = Lymphoid neoplasm diffuse large B-cell lymphoma (N = 48), same cutoff): A (>=50% of tumors above the cutoff)
- Over-expression category of source gene (target coverage), ESCA (source genes (mRNA) [2]; same cutoff): B (>= 20% of tumors above the cutoff, but <50%)
- Over-expression category of source gene (target coverage), GBM (source genes (mRNA) [2]; GBM = Glioblastoma multiforme (N = 169), same cutoff): C (>=5% of tumors above the cutoff, but <20%)
- Over-expression category of source gene (target coverage), LAML (source genes (mRNA) [2]; same cutoff): B (>= 20% of tumors above the cutoff, but <50%)
- Over-expression category of source gene (target coverage), LIHC (source genes (mRNA) [2]; LIHC = Liver hepatocellular carcinoma (N = 374), same cutoff): C (>=5% of tumors above the cutoff, but <20%)
- Over-expression category of source gene (target coverage), LUAD (source genes (mRNA) [2]; same cutoff): C (>=5% of tumors above the cutoff, but <20%)
- Over-expression category of source gene (target coverage), LUSC (source genes (mRNA) [2]; same cutoff): B (>= 20% of tumors above the cutoff, but <50%)
- Over-expression category of source gene (target coverage), OV (source genes (mRNA) [2]; same cutoff): A (>=50% of tumors above the cutoff)
- Over-expression category of source gene (target coverage), READ (source genes (mRNA) [2]; same cutoff): B (>= 20% of tumors above the cutoff, but <50%)
- Over-expression category of source gene (target coverage), SKCM (source genes (mRNA) [2]; same cutoff): C (>=5% of tumors above the cutoff, but <20%)
- Over-expression category of source gene (target coverage), STAD (source genes (mRNA) [2]; same cutoff): B (>= 20% of tumors above the cutoff, but <50%)
- Over-expression category of source gene (target coverage), UCEC (source genes (mRNA) [2]; same cutoff): A (>=50% of tumors above the cutoff)
- Presentation score GC (HLA-A*24; HLA-A*24 peptides): ++++
- Presentation score HCC (HLA-A*24; HLA-A*24 peptides, hepatocellular carcinoma (N = 15) vs panel of normal tissues (N = 70)): ++++
- Presentation score NSCLC (HLA-A*24; HLA-A*24 peptides): ++++
- Peptide Presentation on cancer entities (HLA-A*24): GC, NSCLC, HCC

Substance: 200: peptide found in HUWE1 (gene looked up) (YYGPSLFLL; listed as Homo sapiens) [compound 200]
- Expression score BRCA (source genes (mRNA) [1]; BRCA tumors vs panel of normal tissues): +
- Expression score OSCAR (source genes (mRNA) [1]): +
- Expression score GB (source genes (mRNA) [1]; glioblastoma (N = 24) vs panel of normal tissues): +
- Expression score NSCLC (source genes (mRNA) [1]): +
- Expression score OC (source genes (mRNA) [1]): +
- Expression score SCLC (source genes (mRNA) [1]): +
- Over-expression category of source gene (target coverage), BRCA (source genes (mRNA) [2]): B (>= 20% of tumors above the cutoff, but <50%)
- Over-expression category of source gene (target coverage), COAD (source genes (mRNA) [2]; same cutoff): C (>=5% of tumors above the cutoff, but <20%)
- Over-expression category of source gene (target coverage), ESCA (source genes (mRNA) [2]; same cutoff): A (>=50% of tumors above the cutoff)
- Over-expression category of source gene (target coverage), KICH (source genes (mRNA) [2]; KICH = Kidney chromophobe (N = 66), same cutoff): C (>=5% of tumors above the cutoff, but <20%)
- Over-expression category of source gene (target coverage), KIRC (source genes (mRNA) [2]; KIRC = Clear cell kidney carcinoma (N = 534), same cutoff): B (>= 20% of tumors above the cutoff, but <50%)
- Over-expression category of source gene (target coverage), KIRP (source genes (mRNA) [2]; KIRP = Papillary kidney carcinoma (N = 291), same cutoff): C (>=5% of tumors above the cutoff, but <20%)
- Over-expression category of source gene (target coverage), LAML (source genes (mRNA) [2]; same cutoff): A (>=50% of tumors above the cutoff)
- Over-expression category of source gene (target coverage), LGG (source genes (mRNA) [2]; LGG = Lower grade glioma (N = 534), same cutoff): B (>= 20% of tumors above the cutoff, but <50%)
- Over-expression category of source gene (target coverage), LUAD (source genes (mRNA) [2]; same cutoff): C (>=5% of tumors above the cutoff, but <20%)
- Over-expression category of source gene (target coverage), LUSC (source genes (mRNA) [2]; same cutoff): C (>=5% of tumors above the cutoff, but <20%)
- Over-expression category of source gene (target coverage), OV (source genes (mRNA) [2]; same cutoff): B (>= 20% of tumors above the cutoff, but <50%)
- Over-expression category of source gene (target coverage), PAAD (source genes (mRNA) [2]; PAAD = Pancreatic ductal adenocarcinoma (N = 179), same cutoff): C (>=5% of tumors above the cutoff, but <20%)
- Over-expression category of source gene (target coverage), PRAD (source genes (mRNA) [2]; PRAD = Prostate adenocarcinoma (N = 498), same cutoff): C (>=5% of tumors above the cutoff, but <20%)
- Over-expression category of source gene (target coverage), READ (source genes (mRNA) [2]; same cutoff): C (>=5% of tumors above the cutoff, but <20%)
- Over-expression category of source gene (target coverage), SKCM (source genes (mRNA) [2]; same cutoff): B (>= 20% of tumors above the cutoff, but <50%)
- Over-expression category of source gene (target coverage), STAD (source genes (mRNA) [2]; same cutoff): A (>=50% of tumors above the cutoff)
- Over-expression category of source gene (target coverage), UCEC (source genes (mRNA) [2]; same cutoff): C (>=5% of tumors above the cutoff, but <20%)
- Presentation score GC (HLA-A*24; HLA-A*24 peptides): +
- Presentation score NSCLC (HLA-A*24; HLA-A*24 peptides): +
- Peptide Presentation on cancer entities (HLA-A*24): GC, NSCLC, RCC

For some assays here: For expression read-outs the peptide stands for its source gene, whose mRNA was measured; the gene is not named for every peptide.
